{"source": "PubChem BioAssay AID1224826, NIAID | 2016", "purpose": "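Knock-downs that raise or lower Tnf reporter signal after endotoxin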 (primary screen)", "system": "RAW264.7 G9 macrophages from mouse bearing reporters for p65 (GFP) and the Tnf promoter (mCherry)", "reagents": "siRNA pool against mouse genes, 100 nM", "timing": "16 h of LPS stimulation, after 2 days of siRNA transfection", "challenge": "bacterial lipopolysaccharide (Salmonella minnesota R595), 10 ng/ml", "read-out": "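Nuclear mCherry signal of the Tnf promoter reporter measured by imaging after background removal, scaled to each plate median and turned into robust z-scores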", "direction": "Tnf reporter robust z-score: higher = stronger Tnf promoter reporter signal after LPS", "hit rule": "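Called active when robust z-score is at most -1.3, matching the median of the Tlr4 knock-down control, or over 3; control wells and wells with under 50 cells never active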", "meaning of the calls": "active = Tnf reporter clearly lowered or raised; inactive = no clear change in Tnf reporter", "note": "The deposit covers about 17,000 reagents; shown is a part drawn at random. About 1,110 of them (6.6%) count as active. 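Active means lowered or raised reporter signal; replicate intensities are raw and not normalised per plate.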 Not all columns of the deposit are shown. Reagent sequences are not shown."}
{"target gene": "Pthlh (parathyroid hormone-like peptide)", "PubChem SID": "SID315468783", "Tnf reporter robust z-score": -0.28, "fewer than 50 cells in well": "enough cells in well", "call": "inactive"}
{"target gene": "Ramp3 (receptor (calcitonin) activity modifying protein 3)", "PubChem SID": "SID315471370", "Tnf reporter robust z-score": 0.16, "fewer than 50 cells in well": "enough cells in well", "call": "inactive"}
{"target gene": "Ptges2 (prostaglandin E synthase 2)", "PubChem SID": "SID315476090", "Tnf reporter robust z-score": 0.94, "fewer than 50 cells in well": "enough cells in well", "call": "inactive"}
{"target gene": "Pantr1", "PubChem SID": "SID315472349", "fewer than 50 cells in well": "fewer than 50 cells per well; well left out of calls", "call": "inactive"}
{"target gene": "Ms4a5 (membrane-spanning 4-domains, subfamily A, member 5)", "PubChem SID": "SID315480829", "Tnf reporter robust z-score": 0.5, "fewer than 50 cells in well": "enough cells in well", "call": "inactive"}
{"target gene": "Egfl7 (EGF-like domain 7)", "PubChem SID": "SID315481698", "Tnf reporter robust z-score": -0.24, "fewer than 50 cells in well": "enough cells in well", "call": "inactive"}
{"target gene": "Ranbp17 (RAN binding protein 17)", "PubChem SID": "SID315472171", "Tnf reporter robust z-score": -0.12, "fewer than 50 cells in well": "enough cells in well", "call": "inactive"}
{"target gene": "Itgb1 (integrin beta 1 (fibronectin receptor beta))", "PubChem SID": "SID315467515", "Tnf reporter robust z-score": -0.3, "fewer than 50 cells in well": "enough cells in well", "call": "inactive"}
{"target gene": "Siae (sialic acid acetylesterase)", "PubChem SID": "SID315470074", "Tnf reporter robust z-score": 1.21, "fewer than 50 cells in well": "enough cells in well", "call": "inactive"}
{"target gene": "Prpf31 (pre-mRNA processing factor 31)", "PubChem SID": "SID315473690", "Tnf reporter robust z-score": -0.8, "fewer than 50 cells in well": "enough cells in well", "call": "inactive"}
{"target gene": "Ptrh1 (peptidyl-tRNA hydrolase 1 homolog)", "PubChem SID": "SID315481523", "Tnf reporter robust z-score": 4.3, "fewer than 50 cells in well": "enough cells in well", "call": "active"}
{"target gene": "Mrgpra4 (MAS-related GPR, member A4)", "PubChem SID": "SID315479289", "Tnf reporter robust z-score": 3.03, "fewer than 50 cells in well": "enough cells in well", "call": "active"}
{"target gene": "Lect2 (leukocyte cell-derived chemotaxin 2)", "PubChem SID": "SID315467742", "Tnf reporter robust z-score": 0.62, "fewer than 50 cells in well": "enough cells in well", "call": "inactive"}
{"target gene": "1500015L24Rik (RIKEN cDNA 1500015L24 gene)", "PubChem SID": "SID315473692", "fewer than 50 cells in well": "fewer than 50 cells per well; well left out of calls", "call": "inactive"}
{"target gene": "Myoz3 (myozenin 3)", "PubChem SID": "SID315477263", "Tnf reporter robust z-score": -1.11, "fewer than 50 cells in well": "enough cells in well", "call": "inactive"}
{"target gene": "Slx4 (SLX4 structure-specific endonuclease subunit)", "PubChem SID": "SID315471026", "fewer than 50 cells in well": "fewer than 50 cells per well; well left out of calls", "call": "inactive"}
{"target gene": "Or3a1b (olfactory receptor family 3 subfamily A member 1B)", "PubChem SID": "SID315480353", "Tnf reporter robust z-score": -0.81, "fewer than 50 cells in well": "enough cells in well", "call": "inactive"}
{"target gene": "Abcc3 (ATP-binding cassette, sub-family C member 3)", "PubChem SID": "SID315475304", "Tnf reporter robust z-score": -0.97, "fewer than 50 cells in well": "enough cells in well", "call": "inactive"}
{"target gene": "H1f5 (H1.5 linker histone, cluster member)", "PubChem SID": "SID315471641", "Tnf reporter robust z-score": 0.22, "fewer than 50 cells in well": "enough cells in well", "call": "inactive"}
{"target gene": "Slc25a38", "PubChem SID": "SID315477542", "Tnf reporter robust z-score": 0.42, "fewer than 50 cells in well": "enough cells in well", "call": "inactive"}
{"target gene": "Pex11g (peroxisomal biogenesis factor 11 gamma)", "PubChem SID": "SID315473730", "Tnf reporter robust z-score": 0.27, "fewer than 50 cells in well": "enough cells in well", "call": "inactive"}

4 of these entries, set out differently.
| target gene | PubChem SID | Tnf reporter robust z-score | fewer than 50 cells in well | call |
| --- | --- | --- | --- | --- |
| Slx4 (SLX4 structure-specific endonuclease subunit) | SID315471026 | – | fewer than 50 cells per well; well left out of calls | inactive |
| Or3a1b (olfactory receptor family 3 subfamily A member 1B) | SID315480353 | -0.81 | enough cells in well | inactive |
| Abcc3 (ATP-binding cassette, sub-family C member 3) | SID315475304 | -0.97 | enough cells in well | inactive |
| H1f5 (H1.5 linker histone, cluster member) | SID315471641 | 0.22 | enough cells in well | inactive |
